Results are given in words; binding and its absence hold for the method and conditions named. Binding seen in cells or lysates may run through a third protein. Binding calls can cover weak binding; strength is not graded here.
Biological target: NF-κB
Assay: co-IP; cells lysed; supernatants incubated overnight at 4 °C with specific antibodies; Protein A/G magnetic beads 1 h at room temperature; three washes; Western blot

binding: binds
B1: ANXA6 (protein, UniProt P08133 1-673)
chain: MAKPAQGAKYRGSIHDFPGFDPNQDAEALYTAMKGFGSDKEAILDIITSRSNRQRQEVCQSYKSLYGKDLIADLKYELTGKFERLIVGLMRPPAYCDAKEIKDAISGIGTDEKCLIEILASRTNEQMHQLVAAYKDAYERDLEADIIGDTSGHFQKMLVVLLQGTREEDDVVSEDLVQQDVQDLYEAGELKWGTDEAQFIYILGNRSKQHLRLVFDEYLKTTGKPIEASIRGELSGDFEKLMLAVVKCIRSTPEYFAERLFKAMKGLGTRDNTLIRIMVSRSELDMLDIREIFRTKYEKSLYSMIKNDTSGEYKKTLLKLSGGDDDAAGQFFPEAAQVAYQMWELSAVARVELKGTVRPANDFNPDADAKALRKAMKGLGTDEDTIIDIITHRSNVQRQQIRQTFKSHFGRDLMTDLKSEISGDLARLILGLMMPPAHYDAKQLKKAMEGAGTDEKALIEILATRTNAEIRAINEAYKEDYHKSLEDALSSDTSGHFRRILISLATGHREEGGENLDQAREDAQVAAEILEIADTPSGDKTSLETRFMTILCTRSYPHLRRVFQEFIKMTNYDVEHTIKKEMSGDVRDAFVAIVQSVKNKPLFFADKLYKSMKGAGTDEKTLTRIMVSRSEIDLLNIRREFIEKYDKSLHQAIEGDTSGDFLKALLALCGGED
